From PMC12040169 (PLOS Biology, 2025)
The list shows a part of the results.

test system: T1, CTL2-GFP (C. trachomatis L2/434/Bu, GFP-expressing); design: species or system HeLa; Intracellular C. trachomatis growth in HeLa cells, bulk GFP fluorescence relative to DMSO; conditions: bulk GFP, single well; 28.5 h, 10 µM; inhibitor
T1 construct: L2/434/Bu, GFP-expressing

SMILES | % of control remaining
Cc1noc(C)c1CN1CCN(CC(CC(=O)Nc2ccccc2)C(=O)O)CC1 (stereo not drawn) [CBK286858] | 130.409%
CCCn1nnc(NC(=O)COc2ccc3ccccc3c2)n1 [CBK265923] | 164.762%
O=C(CCc1ccc(=O)[nH]n1)N1CCCCC1c1nc2cc(F)ccc2[nH]1 (stereo not drawn) [CBK291107] | 110.912%
O=S(=O)(Nc1ccccc1N1CCCCC1)c1ccc(Cl)cc1 [CBK077063] | 81.1938%
Cn1cc2c(n1)[C@H]1CN(C(=O)c3cc(C(F)(F)F)n(C)n3)C[C@H]1C2 [CBK283399] | 127.349%
CCOC(=O)CNc1ccc(C(F)(F)F)cc1 [CBK057732] | 164.302%
COc1ccc(C)cc1OCCO [CBK001975] | 89.6661%
COc1cccc(C(O)CN2CCC3(CC2)CC(O)c2cc(Cl)c(C)cc2O3)c1 (stereo not drawn) [CBK286342] | 95.8873%
NS(=O)(=O)c1ccc(C(=O)Nc2cccc3cc[nH]c23)cc1 [CBK160094] | 106.897%
CC(C)(C)C(=O)NC(N(Cc1ccccc1)Cc1ccccc1)C(Cl)(Cl)Cl (stereo not drawn) [CBK261023] | 120.833%
O=C(Nc1ccccc1C(=O)NCCCc1nc2ccccc2[nH]1)c1cccs1 [CBK296641] | 140.298%
O=[N+]([O-])c1cc(Nc2ncnc3ccccc23)cc(Oc2ccccc2)c1 [CBK293928] | 104.302%
O=C(c1ccc2occc2c1)N1CCCC2(CCN(C(=O)c3cc(F)c(F)cc3F)C2)C1 (stereo not drawn) [CBK137071] | 142.803%
Cc1nn2c(c1-c1ccccc1)NC(=O)CC2C(=O)O (stereo not drawn) [CBK287118] | 129.793%
O=C1NC2(CCC2)C(=O)N1Cc1coc(-c2cccs2)n1 [CBK305209] | 99.9361%
O=C(Nc1ccccc1)c1ccccc1OCc1ccc(S(=O)(=O)N2CCOCC2)cc1 [CBK267396] | 117.604%
CSc1ccccc1CNC(=O)c1cc(Br)cnc1N(C)S(C)(=O)=O [CBK076529] | 117.481%
CN(C)C(=O)NCCNC(=O)c1c[nH]nc1-c1cc2ccccc2o1 [CBK306157] | 124.074%
CC(C)[C@@H](CO)Nc1nc(-c2ccc3ccccc3c2)cn2ccnc12 [CBK037445] | 127.818%
NC(=O)C1CCN(S(=O)(=O)c2ccc([N+](=O)[O-])cc2)CC1 [CBK261455] | 108.217%
CCN(CC)CCOC(=O)c1oc2c3c(ccc2c1C)OCCO3 [CBK008676C] | 90.9849%
COc1ccc(C)cc1NS(=O)(=O)c1cc(I)c2occc2c1 [CBK078531] | 112.452%
CCOCCn1c(N2CC(C)CC(C)C2)nc2c1c(=O)[nH]c(=O)n2C (stereo not drawn) [CBK306200] | 90.3407%
COC(=O)c1ccc(C)c(N(CCO)CCO)c1 [CBK262418] | 125.595%
O=C(NCN1CCN(c2ccc([N+](=O)[O-])cc2)CC1)c1cccnc1 [CBK264909] | 94.266%
CN1CCCC1CCOc1ncccc1OCCO (stereo not drawn) [CBK039176] | 103.205%

Some of the entries above in a different format.

| SMILES | % of control remaining |
| --- | --- |
| COc1ccc(C)cc1NS(=O)(=O)c1cc(I)c2occc2c1 [CBK078531] | 112.452% |
| CCOCCn1c(N2CC(C)CC(C)C2)nc2c1c(=O)[nH]c(=O)n2C (stereo not drawn) [CBK306200] | 90.3407% |
| COC(=O)c1ccc(C)c(N(CCO)CCO)c1 [CBK262418] | 125.595% |

The results go on.

SMILES | % of control remaining
CCOC(=O)CNS(=O)(=O)c1ccc(C(F)(F)F)cc1[N+](=O)[O-] [CBK034446] | 83.7461%
COC(=O)[C@@H](NC(=O)C1CCN(C(=O)OCc2ccccc2)CC1)c1ccccc1 [CBK081468] | 109.538%
O=C1/C(=C/c2ccc(OCc3ccccc3Cl)c(Cl)c2)SC(=S)N1Cc1cccnc1 [CBK264702] | 100%
C=CCn1c2cc(C)sc2c2cnn(CC(=O)N(C)C)c(=O)c21 [CBK284164] | 116.344%
O=C(COc1ccc(Cl)cc1Br)NNC(=O)c1ccc(O)cc1 [CBK262950] | 125.537%
O=C(Nc1cccc(-c2cccc(F)c2)c1)c1ccccc1Cn1cncn1 [CBK285735] | 108.903%
COc1ccnc(N2CCN(C(=O)c3cnn(C)c3C3CC3)CC2)n1 [CBK304900] | 131.279%
COC(=O)COc1ccc(S(=O)(=O)NCc2ccc3c(c2)OCO3)cc1C [CBK267172] | 182.212%
CNC(=O)c1sc2ccccc2c1C1CN(Cc2cn(C)c3cc(OC)ccc23)CCO1 (stereo not drawn) [CBK286087] | 110.859%
CCSc1nnc(-c2cccc(C)c2)n1CC1CCCCC1 [CBK085419] | 106.581%
CCOc1ccc(Cl)cc1CCNC(=O)NC(C)c1nnnn1C (stereo not drawn) [CBK305923] | 141.546%
O=C(COc1ccc(S(=O)(=O)N2CCCCC2)cc1Cl)N1CCc2ccccc2C1 [CBK269510] | 144.088%
CCc1cccc2c(CN3CCc4nc(C)[nH]c(=O)c4C3)c[nH]c12 [CBK283931] | 146.943%
Cc1ccc(NC(=O)C2CC(=O)Nc3nc(SCc4ccccc4C)[nH]c(=O)c32)c(C)c1 (stereo not drawn) [CBK294438] | 149.734%
O=C(NCc1ccc(F)cc1)Nc1ccccc1F [CBK115584] | 108.813%
O=C(c1cccc(F)c1)N1CCCC1c1cc2cccnc2[nH]1 (stereo not drawn) [CBK285081] | 126.681%
CCc1cc(Br)ccc1S(=O)(=O)Nc1ccnn1CC [CBK044900] | 120.312%
CN(C)c1ccccc1-c1cc(Nc2ccc3cn[nH]c3c2)ncn1 [CBK090850] | 143.522%
O=C(CCn1c(C(F)(F)F)cc2cccnc21)N1CCC(O)CC1 [CBK284887] | 140.757%
CCCN1CCN(c2ncc(CNS(=O)(=O)c3ccc(Cl)cc3)cn2)CC1 [CBK010261] | 108.007%
COc1ccc(Cl)cc1NC(=O)Nc1ccc(C(=O)N2CCOCC2)cc1 [CBK266958] | 182.736%
CCN(CC)C(=O)c1sccc1NS(=O)(=O)Cc1ccccc1 [CBK050393] | 82.6065%
CCOC(=O)c1ccccc1NS(=O)(=O)c1ccc(C(F)(F)F)cc1[N+](=O)[O-] [CBK050584] | 97.9973%
NS(=O)(=O)c1ccc(/N=C/c2cccc(O)c2O)cc1 [CBK261533] | 106.188%
Cc1cc(=O)n(CC(=O)NCCn2ccnc2)c2ccccc12 [CBK281583] | 103.34%
COc1cc(C2C(C#N)=C(N)OC3=C2C(=O)CC(c2ccccc2)C3)cc(Br)c1O (stereo not drawn) [CBK261587] | 100%

SMILES | % of control remaining
Cc1cccc(N(CC(=O)Nc2ccc3c(c2)oc2ccccc23)S(=O)(=O)c2ccccc2)c1 [CBK264813] | 133.373%
COc1ccc(NC(=O)c2ccc(-c3nnn[nH]3)cc2)cc1OC [CBK295138] | 146.587%
Fc1ccccc1C1CCN(c2cncc(N3CCNCC3)n2)CC1 [CBK172236G] | 120.882%
CCn1cc(CN(CCN(C)C)Cc2ccc(C)o2)c(C)n1 [CBK282845] | 135.011%
O=C(Nc1ncc(-c2ccccc2)s1)c1cccc([N+](=O)[O-])c1 [CBK157055] | 40.5529%
CC(C)(C)c1ccc(-c2cc3ncccc3nc2N)cc1 [CBK081199] | 115.88%
O=C(Cc1cccc2ccccc12)NC(=S)Nc1ccc(S(=O)(=O)N2CCCCC2)cc1 [CBK266283] | 104.708%
Cc1nc2c(OCc3ccccc3)cccn2c1N(C)C(=O)C1CCCCC1 [CBK147884] | 109.633%
O=C(O)c1cccc(-c2ccc(/C=N/NC(=O)c3sc4ccccc4c3Cl)o2)c1 [CBK263863] | 140.435%
COC(=O)c1ccc(-c2ccc3[nH]ccc3c2)nc1 [CBK160174T] | 116.048%
Cc1nccn1CCNC(=O)CCc1nc2ccccc2n1C [CBK281978] | 115.234%
c1ccc(CNc2nc(-c3ccco3)cn3ccnc23)cc1 [CBK037955] | 187.644%
CN1CCC2(CC1)CC(=O)c1cc(-c3ccc(C(=O)N(C)CCC#N)cc3)ccc1O2 [CBK156518] | 100.364%
CSc1ncc(Cl)c(C(=O)Nc2sc3c(c2C(=O)NCc2cccnc2)CCC3)n1 [CBK268710] | 112.53%
O=C1NC(=S)S/C1=C\c1cn(-c2ccccc2)nc1-c1ccc(OCc2ccccc2)cc1 [CBK265496] | 139.451%
CC(=O)Nc1cc(I)cc(C(=O)O)c1 [CBK026452G] | 112.548%
COc1ccc2c(c1)CC1(CCC(NCCCC(=O)c3ccc(F)cc3)CC1)C2 (stereo not drawn) [CBK016054C] | 100%
CCc1nc2ccc(C(=O)N(C)Cc3ccccc3)cn2c1N(C=O)CC [CBK145936] | 121.631%
CCCCNC(=O)c1ccc2nc(CC)c(N(C)C(=O)C3CCCCC3)n2c1 [CBK145791] | 100%
Cc1ccc(C(NC(=O)C2CCN(Cc3ccc(Cl)cc3)CC2)c2ccccn2)cc1 (stereo not drawn) [CBK148007] | 125.183%
CCCC/C=C/c1cncc(N2CCN(Cc3ccccn3)CC2)n1 [CBK066096] | 104.139%
CCOC(=O)C1(C2CCCCC2)CCN(C(=O)c2cc(C)[nH]n2)CC1 [CBK137100] | 95.0358%
COCc1nc(NCCCn2c(C)cccc2=O)cc(C2CCOC2)n1 (stereo not drawn) [CBK306845] | 80.3412%
Cc1ccc(Cn2cnc3c(cnn3-c3ccc(C)c(C)c3)c2=O)cc1 [CBK287540] | 144.733%
CCC(NC(=O)c1cc(CC(C)C)nn1CC)c1cn2cccnc2n1 (stereo not drawn) [CBK307505] | 136.539%
O=C(CCc1nc2ccccc2s1)Nc1nc2ccccc2[nH]1 [CBK287988] | 109.44%
